Measurements reported in PubChem BioAssay AID686938 (Drosophila RNAi Screening Center, 2013)

Aim: 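Fly genes required for calcium entry once internal stores are emptied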 (primary screen)
Cells: Drosophila S2R+ cells
Knock-down reagent: long dsRNA against Drosophila genes, about 0.25 µg dsRNA per well, roughly 10,000 cells
Timing: 5 days of knock-down before the calcium assay
Challenge: thapsigargin (SERCA pump blocker) to empty calcium stores; entry signal taken 4 min after adding it
Read-out: 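Per-well fluo-4 fluorescence in two replicates, unnormalised, measured in resting cells and 4 min after store depletion by the SERCA blocker thapsigargin; ratio of the two present in few wells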
Direction: calcium entry signal: higher = stronger calcium signal after store depletion; resting calcium signal: higher = higher resting calcium signal
Rule for the call: 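Hit if the duplicate-averaged plate z-score for entry over resting signal is under −3; wells with weak total dye signal (Fmax z < −2) or more than 5 off-targets removed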
Meaning of the calls: active = strongly reduced calcium entry; inactive = no strong reduction
In all, the deposit lists about 23,000 reagents; this is an unselected part of those that have a named target and a result. Over the whole deposit, 75 (0.33%) got an active call. 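Raw plate signals without normalisation; calls rest on plate z-scores that were not deposited; ratio present for only 364 wells.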 A plus sign joins genes that one reagent is predicted to hit. Not given: the dose of the treatment.

Gene | dsRNA | calcium entry signal, replicate 1 (fluorescence units) | calcium entry signal, replicate 2 (fluorescence units) | resting calcium signal, replicate 1 (fluorescence units) | resting calcium signal, replicate 2 (fluorescence units) | outcome
Art4 (Arginine methyltransferase 4) | DRSC15779 | 3.19e7 | 4.51e7 | 1.71e7 | 2.15e7 | inactive
snoRNA:Me28S-C3420b + RpS11 | DRSC07396 | 3.04e7 | 4.02e7 | 1.48e7 | 1.66e7 | inactive
CG14315 | DRSC14794 | 3.33e7 | 3.71e7 | 4.23e7 | 1.55e7 | inactive
nod (no distributive disjunction) | DRSC18900 | 3.12e7 | 2.98e7 | 1.57e7 | 1.41e7 | inactive
nod (no distributive disjunction) | DRSC20356 | 3.34e7 | 4.03e7 | 1.61e7 | 1.89e7 | inactive
CG13047 | DRSC09928 | 3.27e7 | 4.98e7 | 1.67e7 | 1.98e7 | inactive
Lint-1 + rtv | DRSC19541 | 3.01e7 | 3.12e7 | 1.52e7 | 1.54e7 | inactive
CG10576 | DRSC09745 | 3.26e7 | 2.28e7 | 2.30e7 | 1.03e7 | inactive
tyn (trynity) | DRSC20652 | 5.12e7 | 3.83e7 | 2.14e7 | 1.66e7 | inactive
CG9213 | DRSC20170 | 2.72e7 | 3.25e7 | 1.37e7 | 1.50e7 | inactive
CG9875 | DRSC04585 | 3.10e7 | 3.55e7 | 1.60e7 | 1.66e7 | inactive
CG13725 | DRSC10054 | 3.38e7 | 3.54e7 | 1.54e7 | 1.67e7 | inactive
Ugt49B2 (UDP-glycosyltransferase family 49 member B2) | DRSC16049 | 4.41e7 | 4.17e7 | 5.39e7 | 1.85e7 | inactive
tll (tailless) | DRSC17085 | 4.00e7 | 6.27e7 | 1.94e7 | 2.35e7 | inactive
Zpr1 | DRSC18432 | 2.80e7 | 3.41e7 | 1.43e7 | 1.58e7 | inactive
CG12824 | DRSC06173 | 3.28e7 | 3.23e7 | 1.50e7 | 1.40e7 | inactive
agt (O-6-alkylguanine-DNA alkyltransferase) | DRSC12611 | 4.69e7 | 2.96e7 | 2.23e7 | 1.41e7 | inactive
Orc6 (Origin recognition complex subunit 6) | DRSC07497 | 3.53e7 | 3.72e7 | 1.86e7 | 1.63e7 | inactive
Tsp42Eh (Tetraspanin 42Eh) | DRSC06190 | 4.40e7 | 4.00e7 | 2.03e7 | 1.68e7 | inactive
CG31008 | DRSC14028 | 3.92e7 | 4.24e7 | 1.80e7 | 1.82e7 | inactive
PCNA2 (Proliferating cell nuclear antigen 2) | DRSC02030 | 4.57e7 | 5.69e7 | 2.05e7 | 2.29e7 | inactive
noi (noisette) | DRSC12383 | 1.59e7 | 1.60e7 | 1.08e7 | 1.07e7 | inactive
Fas3 (Fasciclin 3) | DRSC01638 | 3.05e7 | 3.27e7 | 1.76e7 | 1.61e7 | inactive
Fas3 (Fasciclin 3) | DRSC03326 | 4.96e7 | 4.05e7 | 2.20e7 | 1.80e7 | inactive
Fas3 (Fasciclin 3) | DRSC22776 | 4.44e7 | 3.31e7 | 2.54e7 | 1.54e7 | inactive
Acp98AB (Accessory gland protein 98AB) | DRSC21837 | 1.93e7 | 6.61e7 | 9.97e6 | 2.91e7 | inactive
MESR4 (Misexpression suppressor of ras 4) | DRSC06901 | 5.00e7 | 5.32e7 | 2.62e7 | 2.83e7 | inactive
Acat2 (Acetyl-CoA acetyltransferase 2) | DRSC08630 | 3.03e7 | 3.40e7 | 1.55e7 | 1.47e7 | inactive
CG11562 | DRSC00316 | 3.83e7 | 4.51e7 | 1.83e7 | 1.86e7 | inactive
CG17192 | DRSC15186 | 3.90e7 | 5.23e7 | 1.86e7 | 2.17e7 | inactive
CG8924 | DRSC20122 | 4.43e7 | 5.01e7 | 2.10e7 | 2.37e7 | inactive
CG8924 | DRSC23027 | 3.54e7 | 3.58e7 | 1.63e7 | 1.53e7 | inactive
Cpsf73 (Cleavage and polyadenylation specificity factor 73) | DRSC16291 | 2.13e7 | 2.13e7 | 4.78e7 | 1.11e7 | inactive
Gyc76C + CG42637 | DRSC11180 | 3.21e7 | 4.04e7 | 1.47e7 | 2.48e7 | inactive
CG33523 | DRSC09814 | 2.19e7 | 3.45e7 | 1.09e7 | 1.51e7 | inactive
CG33523 | DRSC22155 | 3.25e7 | 5.07e7 | 1.48e7 | 2.52e7 | inactive
Sur (Sulfonylurea receptor) | DRSC03447 | 4.94e7 | – | 2.39e7 | – | inactive
tos (tosca) | DRSC03624 | 4.45e7 | – | 2.12e7 | – | inactive
w-cup (world cup) | DRSC03048 | 4.49e7 | 5.51e7 | 2.33e7 | 2.32e7 | inactive
lin-52 | DRSC18106 | 2.58e7 | 3.60e7 | 1.37e7 | 1.66e7 | inactive
CG18675 | DRSC08536 | 3.92e7 | 4.36e7 | 1.94e7 | 1.98e7 | inactive
Cpsf5 (Cleavage and polyadenylation specific factor 5) | DRSC10374 | 4.25e7 | 3.88e7 | 2.99e7 | 1.50e7 | inactive
CG12289 | DRSC09874 | 3.07e7 | 3.58e7 | 1.67e7 | 1.62e7 | inactive
CG8539 | DRSC10988 | 4.50e7 | 3.45e7 | 3.03e7 | 1.53e7 | inactive
CG8539 | DRSC21798 | 3.76e7 | 3.61e7 | 2.15e7 | 1.74e7 | inactive
CG13005 | DRSC19524 | 3.09e7 | 3.32e7 | 1.72e7 | 1.65e7 | inactive
CG8329 | DRSC10978 | 4.75e7 | 3.78e7 | 3.15e7 | 1.66e7 | inactive
GstO1 (Glutathione S transferase O1) | DRSC10688 | 2.69e7 | 3.36e7 | 1.21e7 | 1.36e7 | inactive
IM33 (Immune induced molecule 33) | DRSC00476 | 3.76e7 | 3.27e7 | 1.78e7 | 1.60e7 | inactive
Prx6c + CG12896 + Prx6b | DRSC06148 | 4.48e7 | 4.69e7 | 2.16e7 | 2.16e7 | inactive
Octbeta2R (Octopamine beta2 receptor) | DRSC12917 | 3.15e7 | 5.29e7 | 1.66e7 | 2.23e7 | inactive
Octbeta2R (Octopamine beta2 receptor) | DRSC15350 | 3.80e7 | 4.03e7 | 2.04e7 | 2.10e7 | inactive
Octbeta2R (Octopamine beta2 receptor) | DRSC16165 | 4.14e7 | 3.59e7 | 2.05e7 | 1.79e7 | inactive
CG5707 | DRSC08573 | 3.91e7 | 3.62e7 | 1.72e7 | 1.63e7 | inactive
Muc68E (Mucin 68E) | DRSC09146 | 4.70e7 | 4.40e7 | 2.60e7 | 2.17e7 | inactive
CR32511 (pseudo) | DRSC20697 | 6.99e7 | 2.93e7 | 2.75e7 | 1.57e7 | inactive
Vps33B (Vacuolar protein sorting 33B) | DRSC15722 | 2.28e7 | 2.34e7 | 1.01e7 | 1.10e7 | inactive
Srr (Serine racemase) | DRSC16382 | 2.79e7 | 2.57e7 | 1.41e7 | 1.33e7 | inactive

6 consecutive reagents from above, for reference:
Gene | dsRNA | calcium entry signal, replicate 1 (fluorescence units) | calcium entry signal, replicate 2 (fluorescence units) | resting calcium signal, replicate 1 (fluorescence units) | resting calcium signal, replicate 2 (fluorescence units) | outcome
Ugt49B2 (UDP-glycosyltransferase family 49 member B2) | DRSC16049 | 4.41e7 | 4.17e7 | 5.39e7 | 1.85e7 | inactive
tll (tailless) | DRSC17085 | 4.00e7 | 6.27e7 | 1.94e7 | 2.35e7 | inactive
Zpr1 | DRSC18432 | 2.80e7 | 3.41e7 | 1.43e7 | 1.58e7 | inactive
CG12824 | DRSC06173 | 3.28e7 | 3.23e7 | 1.50e7 | 1.40e7 | inactive
agt (O-6-alkylguanine-DNA alkyltransferase) | DRSC12611 | 4.69e7 | 2.96e7 | 2.23e7 | 1.41e7 | inactive
Orc6 (Origin recognition complex subunit 6) | DRSC07497 | 3.53e7 | 3.72e7 | 1.86e7 | 1.63e7 | inactive
